Experimental data: publication PMC5366859
These are yes or no findings as the source states them, for the method shown. A result given as binding can be weak or reduced; the word gives no strength. For part of these data: Sequences can lack the tags named with a protein. For part of these data: Binding seen in cells or lysates may run through a third protein. One block for each molecule: values may come before it.

Key:
[1] = molecular target: T1, A. thaliana TIMING OF CAB EXPRESSION1 (AtTOC1), yeast two-hybrid bait (A. thaliana) (UniProt Q9LKL2); experiment: two-hybrid; yeast; AtTOC1 or AaTOC1 as bait (pGBKT7-BD), AtCHE or AaCHE as prey (pGADT7-AD); quadruple dropout medium with X-α-gal (QDO/X) and quantitative α-galactosidase (PNG) assay relative to p53-T
T1 sequence: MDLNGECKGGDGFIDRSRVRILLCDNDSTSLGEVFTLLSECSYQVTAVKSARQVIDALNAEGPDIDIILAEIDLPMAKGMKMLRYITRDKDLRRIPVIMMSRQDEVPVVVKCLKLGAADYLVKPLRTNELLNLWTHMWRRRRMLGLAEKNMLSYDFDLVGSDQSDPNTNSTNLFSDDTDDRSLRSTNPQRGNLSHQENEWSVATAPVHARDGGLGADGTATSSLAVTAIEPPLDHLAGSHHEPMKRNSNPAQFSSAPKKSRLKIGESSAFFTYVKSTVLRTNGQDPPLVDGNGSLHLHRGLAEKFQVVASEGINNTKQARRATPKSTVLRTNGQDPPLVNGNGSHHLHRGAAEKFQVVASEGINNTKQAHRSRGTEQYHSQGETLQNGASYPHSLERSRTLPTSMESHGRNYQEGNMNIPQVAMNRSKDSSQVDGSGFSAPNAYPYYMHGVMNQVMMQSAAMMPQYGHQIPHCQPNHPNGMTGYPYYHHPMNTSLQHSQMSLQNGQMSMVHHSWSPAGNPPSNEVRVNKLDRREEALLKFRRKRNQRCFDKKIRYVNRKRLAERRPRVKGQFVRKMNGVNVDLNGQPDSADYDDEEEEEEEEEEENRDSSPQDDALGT

[2] = molecular target: A. arenosa CCA1 HIKING EXPEDITION (AaCHE), yeast two-hybrid bait (Arabidopsis arenosa); experiment: two-hybrid; yeast; AtCHE or AaCHE as bait (pGBKT7-BD, Y2H gold), AtHD1 or AaHD1 as prey (pGADT7-AD, Y187), mated; limited growth in the triple dropout media
[3] = molecular target: NGFP:AaCHE (Arabidopsis arenosa); experiment: split reporter; split GFP complementation in E. coli Rossetta2 (DE3): NGFP:CHE (T7 promoter, IPTG) co-expressed with HD1:CGFP (PBAD promoter, arabinose); GFP fluorescence microscopy and flow cytometry (FACSCalibur, ~10,000 events), 20 °C for 2 days

- binding [1]: binds
Molecule: A. arenosa CCA1 HIKING EXPEDITION (AaCHE), yeast two-hybrid prey (Arabidopsis arenosa)

- binding [2]: binds weakly
B1: A. thaliana HISTONE …1 (AtHD1), yeast two-hybrid prey (protein, UniProt O22446 1-501)
chain: MDTGGNSLASGPDGVKRKVCYFYDPEVGNYYYGQGHPMKPHRIRMTHALLAHYGLLQHMQVLKPFPARDRDLCRFHADDYVSFLRSITPETQQDQIRQLKRFNVGEDCPVFDGLYSFCQTYAGGSVGGSVKLNHGLCDIAINWAGGLHHAKKCEASGFCYVNDIVLAILELLKQHERVLYVDIDIHHGDGVEEAFYATDRVMTVSFHKFGDYFPGTGHIQDIGYGSGKYYSLNVPLDDGIDDESYHLLFKPIMGKVMEIFRPGAVVLQCGADSLSGDRLGCFNLSIKGHAECVKFMRSFNVPLLLLGGGGYTIRNVARCWCYETGVALGVEVEDKMPEHEYYEYFGPDYTLHVAPSNMENKNSRQMLEEIRNDLLHNLSKLQHAPSVPFQERPPDTETPEVDEDQEDGDKRWDPDSDMDVDDDRKPIPSRVKREAVEPDTKDKDGLKGIMERGKGCEVEVDESGSTKVTGVNPVGVEEASVKMEEEGTNKGGAEQAFPPKT

- binding [3]: binds
B2: AtHD1:CGFP (protein, UniProt O22446 1-501)
chain: MDTGGNSLASGPDGVKRKVCYFYDPEVGNYYYGQGHPMKPHRIRMTHALLAHYGLLQHMQVLKPFPARDRDLCRFHADDYVSFLRSITPETQQDQIRQLKRFNVGEDCPVFDGLYSFCQTYAGGSVGGSVKLNHGLCDIAINWAGGLHHAKKCEASGFCYVNDIVLAILELLKQHERVLYVDIDIHHGDGVEEAFYATDRVMTVSFHKFGDYFPGTGHIQDIGYGSGKYYSLNVPLDDGIDDESYHLLFKPIMGKVMEIFRPGAVVLQCGADSLSGDRLGCFNLSIKGHAECVKFMRSFNVPLLLLGGGGYTIRNVARCWCYETGVALGVEVEDKMPEHEYYEYFGPDYTLHVAPSNMENKNSRQMLEEIRNDLLHNLSKLQHAPSVPFQERPPDTETPEVDEDQEDGDKRWDPDSDMDVDDDRKPIPSRVKREAVEPDTKDKDGLKGIMERGKGCEVEVDESGSTKVTGVNPVGVEEASVKMEEEGTNKGGAEQAFPPKT
